From publication PMC8009681 come the findings set out here.

Sequences of proteins named here, by UniProt entry; tags and fusion partners are left off. A change or cut given only in a name is not applied to a line headed by its entry.
UniProt Q9LXU1: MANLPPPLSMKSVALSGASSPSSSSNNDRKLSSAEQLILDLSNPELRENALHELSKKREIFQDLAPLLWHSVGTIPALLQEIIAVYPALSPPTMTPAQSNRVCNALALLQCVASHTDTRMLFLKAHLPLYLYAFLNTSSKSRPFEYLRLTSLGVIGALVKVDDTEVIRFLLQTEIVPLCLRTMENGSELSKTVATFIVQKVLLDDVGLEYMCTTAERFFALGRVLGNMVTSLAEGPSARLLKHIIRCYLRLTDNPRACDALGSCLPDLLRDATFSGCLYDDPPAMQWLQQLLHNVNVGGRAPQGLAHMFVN

The target of experiment [1] is T1, phyA-LUC-BD (Arabidopsis thaliana) (UniProt P14712).
T1 sequence: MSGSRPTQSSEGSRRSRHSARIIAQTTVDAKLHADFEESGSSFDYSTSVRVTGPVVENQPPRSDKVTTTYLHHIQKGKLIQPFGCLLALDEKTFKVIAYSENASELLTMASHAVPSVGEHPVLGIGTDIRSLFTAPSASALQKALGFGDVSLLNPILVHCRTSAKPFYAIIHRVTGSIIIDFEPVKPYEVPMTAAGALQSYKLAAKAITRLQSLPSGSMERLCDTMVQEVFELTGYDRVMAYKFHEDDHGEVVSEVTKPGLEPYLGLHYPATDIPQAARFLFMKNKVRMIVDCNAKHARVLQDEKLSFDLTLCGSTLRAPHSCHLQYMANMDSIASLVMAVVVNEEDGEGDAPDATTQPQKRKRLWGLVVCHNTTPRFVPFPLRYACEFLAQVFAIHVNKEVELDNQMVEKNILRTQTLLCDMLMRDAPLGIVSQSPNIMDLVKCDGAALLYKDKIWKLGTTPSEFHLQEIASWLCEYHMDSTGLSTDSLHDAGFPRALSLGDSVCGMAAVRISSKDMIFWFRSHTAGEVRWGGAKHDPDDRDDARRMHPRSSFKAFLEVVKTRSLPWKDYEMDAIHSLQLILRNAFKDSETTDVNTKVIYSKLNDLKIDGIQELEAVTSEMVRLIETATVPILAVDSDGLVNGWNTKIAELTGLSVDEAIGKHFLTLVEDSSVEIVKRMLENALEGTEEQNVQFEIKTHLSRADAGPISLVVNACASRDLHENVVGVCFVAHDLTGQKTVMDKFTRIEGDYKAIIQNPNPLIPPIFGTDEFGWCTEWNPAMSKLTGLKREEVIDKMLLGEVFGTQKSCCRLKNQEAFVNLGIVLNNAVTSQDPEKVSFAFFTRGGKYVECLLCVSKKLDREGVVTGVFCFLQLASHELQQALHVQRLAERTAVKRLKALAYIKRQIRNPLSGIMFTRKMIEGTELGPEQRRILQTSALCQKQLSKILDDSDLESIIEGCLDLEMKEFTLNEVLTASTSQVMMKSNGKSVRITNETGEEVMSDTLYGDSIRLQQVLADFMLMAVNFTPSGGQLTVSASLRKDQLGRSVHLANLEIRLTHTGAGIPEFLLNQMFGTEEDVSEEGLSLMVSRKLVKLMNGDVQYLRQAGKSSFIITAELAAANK
The experiment in a line: yeast three-hybrid competition assay; AH109 with a two-hybrid pair and a NOT1 fragment as potential competitor; R light, CSM LTH- plates with 20 μM phycocyanobilin and increasing amounts of 3-AT.

The target in experiment [2] is T2, phyA-BD (Arabidopsis thaliana) (UniProt P14712).
T2 sequence: T1 sequence
The experiment is described as above.

The target of experiment [3] is T2, phyA-BD (Arabidopsis thaliana). The experiment can be described thus: two-hybrid; initial Y2H screen for phyA-interacting proteins, done as previously described (Sheerin et al., 2015).
Experiment [4] has the same target. The experiment in a line: two-hybrid; growth assay, AH109, CSM LTH- plates with 20 μM phycocyanobilin and 3-AT (5, 10 or 30 mM by panel), R light (660 nm; phyA Pfr), 26°C.
Experiment [5] concerns the target T3, N-terminal 406 amino acids of phyA (Arabidopsis thaliana) (UniProt P14712).
T3 sequence: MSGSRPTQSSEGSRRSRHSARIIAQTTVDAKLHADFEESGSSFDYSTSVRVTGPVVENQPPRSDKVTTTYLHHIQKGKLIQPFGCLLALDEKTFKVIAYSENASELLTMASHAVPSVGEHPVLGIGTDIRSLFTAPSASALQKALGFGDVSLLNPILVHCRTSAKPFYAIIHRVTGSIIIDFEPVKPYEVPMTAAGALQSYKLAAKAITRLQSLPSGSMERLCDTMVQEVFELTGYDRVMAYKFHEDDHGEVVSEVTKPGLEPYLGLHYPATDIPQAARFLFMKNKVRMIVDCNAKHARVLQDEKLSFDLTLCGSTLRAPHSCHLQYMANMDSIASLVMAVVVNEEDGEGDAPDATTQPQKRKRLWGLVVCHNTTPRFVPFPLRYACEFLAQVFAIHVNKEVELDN
The description is as above.

Experiment [6] addresses T2, phyA-BD (Arabidopsis thaliana). The experiment in a line: two-hybrid; ONPG assay of β-Gal activity, Y190, liquid CSM with 10 μM phycocyanobilin.
The target is the same in experiment [7]. The experiment in a line: two-hybrid; growth assay, AH109, CSM LTH- plates with 20 μM phycocyanobilin and 5 mM 3-AT, FR light (740 nm; phyA Pr), 26°C.
Experiment [8] concerns the target T4, phyA-GFP (Arabidopsis thaliana) (UniProt P14712).
T4 sequence: T1 sequence
The experiment can be described thus: co-IP; HEK293T cells, medium with 20 μM PCB; total soluble protein, αGFP magnetic beads, blots with αGFP and αmyc.

The target of experiment [9] is T5, AGO1 (endogenous) (Arabidopsis thaliana (endogenous in seedlings)) (UniProt O04379).
T5 sequence: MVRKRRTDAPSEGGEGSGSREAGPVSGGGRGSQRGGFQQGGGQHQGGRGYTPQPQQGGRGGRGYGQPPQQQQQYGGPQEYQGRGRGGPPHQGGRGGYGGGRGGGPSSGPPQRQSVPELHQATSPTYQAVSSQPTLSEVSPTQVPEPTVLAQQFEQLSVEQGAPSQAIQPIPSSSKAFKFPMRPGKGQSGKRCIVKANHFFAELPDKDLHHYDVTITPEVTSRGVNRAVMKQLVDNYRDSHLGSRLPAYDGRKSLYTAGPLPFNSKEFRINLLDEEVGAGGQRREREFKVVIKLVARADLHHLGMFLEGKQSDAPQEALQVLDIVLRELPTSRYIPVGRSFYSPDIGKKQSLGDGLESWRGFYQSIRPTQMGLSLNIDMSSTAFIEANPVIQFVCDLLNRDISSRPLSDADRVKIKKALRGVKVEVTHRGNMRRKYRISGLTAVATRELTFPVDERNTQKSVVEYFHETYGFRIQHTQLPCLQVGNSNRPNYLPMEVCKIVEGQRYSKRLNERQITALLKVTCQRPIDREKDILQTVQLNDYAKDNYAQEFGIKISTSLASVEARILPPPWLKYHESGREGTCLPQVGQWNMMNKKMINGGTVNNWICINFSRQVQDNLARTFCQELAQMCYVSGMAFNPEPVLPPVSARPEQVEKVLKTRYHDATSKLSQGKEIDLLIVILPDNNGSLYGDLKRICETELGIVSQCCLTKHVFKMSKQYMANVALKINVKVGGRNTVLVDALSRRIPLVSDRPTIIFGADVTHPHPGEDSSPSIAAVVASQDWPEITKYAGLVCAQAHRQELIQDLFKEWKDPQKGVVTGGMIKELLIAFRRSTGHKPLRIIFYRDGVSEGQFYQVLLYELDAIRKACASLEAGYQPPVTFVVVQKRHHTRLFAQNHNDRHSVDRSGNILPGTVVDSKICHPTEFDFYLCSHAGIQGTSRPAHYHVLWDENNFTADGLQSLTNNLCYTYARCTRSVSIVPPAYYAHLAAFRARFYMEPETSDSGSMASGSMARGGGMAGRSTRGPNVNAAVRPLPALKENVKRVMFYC
The experiment in a line: co-IP; 4-day-old dark-grown Arabidopsis seedlings; total soluble protein, αAGO1 bound to protein A-coated magnetic beads, blots with αAGO1 and αGFP.

Experiment [10] addresses HA-YFP-NOT9B (Arabidopsis NOT9Box lines) (Arabidopsis thaliana) (UniProt Q9LXU1). The experiment can be described thus: co-IP; stable transgenic Arabidopsis seedlings, 4-day-old dark-grown, kept dark or FR light 5 hr then 5 min R (Pfr) or long-wavelength FR (Pr); total soluble protein, αGFP magnetic beads, IP buffer pH 7.8 with 450 mM NaCl, 4°C.
Experiment [11] concerns the target HA-YFP-NOT9B ΔPNB (Arabidopsis) (Arabidopsis thaliana). The experiment is described as above.
Experiment [12] concerns the target HA-YFP-NOT9B ΔGWB (Arabidopsis) (Arabidopsis thaliana). Described as above.
The target of experiment [13] is NLS-YFP-NOT9B (Arabidopsis) (Arabidopsis thaliana). The description is as above.
In experiment [14] the target is HA-YFP-NOT9B (Arabidopsis NOT9Box lines) (Arabidopsis thaliana) (UniProt Q9LXU1). The experiment in a line: co-IP; competition: Arabidopsis NOT9Box against NOT9Box NOT1 Mox seedlings, FR 5 hr then 5 min R (Pfr) or long-wavelength FR (Pr); αGFP magnetic beads; phyA/NOT9B ratio quantified from three replicates.
Experiment [15] has as its target HA-YFP-NOT9B (leek cells) (Arabidopsis thaliana). The experiment can be described thus: FRET or BRET; FRET-FLIM in bombarded leek epidermal cells, YFP fluorescence lifetime, YFP-tagRFP pair.
The target in experiment [16] is HA-YFP-NOT9B (tobacco) (Arabidopsis thaliana). The experiment in a line: co-IP; transiently transformed tobacco (N. benthamiana) leaves, kept in the dark, 5 min white light; total soluble protein, αGFP magnetic beads, IP buffer pH 7.8 with 450 mM NaCl, 4°C.
Experiment [17] addresses HA-YFP-NOT9B ΔGWB (tobacco) (Arabidopsis thaliana). The experiment is described as above.

No constants are given. Whether binding was seen depends on the method and setting. For part of these data: Binding can be weak; no strength is given. For part of these data: Tags and fused reporters may be left off the sequences shown. For part of these data: In cells and extracts the contact can be indirect.

In the case of HA-AD-NOT9B (Arabidopsis thaliana), in experiment [1], the binding entry is on record as “binds”.
AD-NOT9B (from UniProt Q9LXU1): the binding entry in [2], in experiment [3], in experiment [4], in [5], in experiment [6] and in [7] was “binds” throughout.
As to “FLAG-myc-mCherry-NOT9B (Arabidopsis thaliana)”, the binding result in [8] is reported as “binds”.
Take “NOT9B ΔGWB (two-hybrid fusion) (Arabidopsis thaliana)”: in [4], the binding result is “binds”.
Consider NLS-YFP-NOT9B (Arabidopsis), for which the binding entry in experiment [9] was “binds”.

B1: phyA (endogenous) (protein, UniProt P14712 1-1122)
chain: T1 sequence
B1: the binding entry was “binds” in [10]; “no binding” in experiment [11]; “binds” in experiment [12]; “binds” in experiment [13]; “binds” in [14].

B2: phyA-NLS-tagRFP (protein, UniProt P14712 1-1122)
chain: T1 sequence
Consider B2, for which the binding entry in experiment [15] is given as “binds”.

B3: phyA-NLS-3×HA (protein, UniProt P14712 1-1122)
chain: T1 sequence
On to B3, for which the binding entry in [16] and in experiment [17] was “binds” in each case.
